Measured values reported in article PMC8305168.

Biological target: T1, METTL16 methyltransferase (methyltransferase-like 16) (mouse (endogenous in MEFs)) (UniProt Q9CQG2)
T1 sequence: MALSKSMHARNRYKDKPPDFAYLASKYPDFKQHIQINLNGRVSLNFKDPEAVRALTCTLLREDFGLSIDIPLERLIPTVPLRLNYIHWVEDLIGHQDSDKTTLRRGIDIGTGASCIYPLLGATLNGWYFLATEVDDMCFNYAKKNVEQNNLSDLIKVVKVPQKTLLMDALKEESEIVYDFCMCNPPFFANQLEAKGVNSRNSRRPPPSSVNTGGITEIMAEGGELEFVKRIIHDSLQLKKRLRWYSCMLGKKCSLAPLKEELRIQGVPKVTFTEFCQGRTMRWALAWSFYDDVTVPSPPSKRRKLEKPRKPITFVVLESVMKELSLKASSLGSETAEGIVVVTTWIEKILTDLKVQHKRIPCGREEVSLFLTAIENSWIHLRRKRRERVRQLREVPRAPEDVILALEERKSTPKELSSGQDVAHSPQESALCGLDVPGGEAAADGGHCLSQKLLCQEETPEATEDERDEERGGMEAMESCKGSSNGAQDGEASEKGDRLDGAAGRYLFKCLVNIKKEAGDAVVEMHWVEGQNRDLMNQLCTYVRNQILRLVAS
Test: co-IP; 500 μg lysate (Pierce IP Lysis Buffer) of wt MEFs or LMNA dn cells, non-irradiated or UVA-irradiated, precipitated with anti-METTL16 antibody (HPA020352) or control rabbit IgG on Catch and Release v2.0 columns, overnight at 4 °C; eluate blotted for the partners

## B-type lamin (mouse (endogenous in MEFs))
  binding: no binding

These are yes or no findings as the source states them, for the method shown. Binding seen in cells or lysates may run through a third protein.
